The results in this text go back to PubChem BioAssay AID256 (DTP/NCI, 2004).

The subject of the experiment is CD2F1 mice, L1210 leukemia ip, survival T/C. In words: NCI In Vivo Anticancer Drug Screen. Data for tumor model L1210 Leukemia (intraperitoneal) in CD2F1 (CDF1) mice. Conditions: higher T/C = longer survival. Summed up: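 Compound-dosed mice with transplantable tumor versus matched vehicle controls; endpoint ratio T/C reported.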

The list does not hold the whole screen: it covers a few groups of compounds. Not every dose and run of a compound is shown. T/C is the treated group as % of the vehicle group. Some doses have a count of surviving animals in place of a T/C: the source holds a T/C of zero for them, seemingly a mark for toxic or unscored doses. Counts of survivors are from the toxicity check (mostly the fifth day) where no day follows; animals may have died later. Schedule codes are those of the source, taken here to give the interval after Q, in days (D) or hours (H), and the number of doses after X. For survival time, this PubChem deposit counts one and a half times the control or more as active, and values a quarter to a half above the control carry no call in these data; other NCI protocols may use other cut-offs. Some doses were run more than once; the results are listed from low to high. Some entries show no survivor count and are marked so; the dose need not have been tolerated. Additions like (4×) count equal records among those shown.

As to `CC1CC(C)OP(=O)(N(CCCl)CCCl)N1` (stereo unspecified), the T/C was 96 % of control [survivor count not shown] (T/C endpoint: mean survival time, dose: 15.63 mg/kg/injection, schedule: Q01DX001 (ip), vehicle: distilled water + Tween-80); 102 % of control (T/C endpoint: mean survival time, dose: 15.63 mg/kg/injection, schedule: Q01DX001 (ip), vehicle: water, evaluated on day 30); 94 [survivor count not shown] and 100 % of control [survivor count not shown] (T/C endpoint: mean survival time, dose: 15.63 mg/kg/injection, schedule: Q01DX001 (ip), vehicle: water, evaluation day not shown); 100 % of control [survivor count not shown] (T/C endpoint: mean survival time, dose: 31.25 mg/kg/injection, schedule: Q01DX001 (ip), vehicle: distilled water + Tween-80); 97 % of control (T/C endpoint: mean survival time, dose: 31.25 mg/kg/injection, schedule: Q01DX001 (ip), vehicle: water, evaluated on day 30); 98 % of control [survivor count not shown] (2×) (T/C endpoint: mean survival time, dose: 31.25 mg/kg/injection, schedule: Q01DX001 (ip), vehicle: water, evaluation day not shown). The T/C (T/C endpoint: mean survival time, dose: 62.5 mg/kg/injection, schedule: Q01DX001 (ip), vehicle: distilled water + Tween-80) was 104 % of control [survivor count not shown]; the T/C (T/C endpoint: mean survival time, dose: 62.5 mg/kg/injection, schedule: Q01DX001 (ip), vehicle: water, evaluated on day 30) was 92 % of control; the T/C (T/C endpoint: mean survival time, dose: 62.5 mg/kg/injection, schedule: Q01DX001 (ip), vehicle: water, evaluation day not shown) is 111 [survivor count not shown] and 117 % of control [survivor count not shown]; the T/C (T/C endpoint: mean survival time, dose: 125.0 mg/kg/injection, schedule: Q01DX001 (ip), vehicle: distilled water + Tween-80) was 110 % of control [survivor count not shown]; the T/C (T/C endpoint: mean survival time, dose: 125.0 mg/kg/injection, schedule: Q01DX001 (ip), vehicle: water, evaluated on day 30) is 112 % of control; the T/C (T/C endpoint: mean survival time, dose: 125.0 mg/kg/injection, schedule: Q01DX001 (ip), vehicle: water, evaluation day not shown) was 102 [survivor count not shown] and 111 % of control [survivor count not shown]. Also, the T/C is 122 % of control [survivor count not shown] (T/C endpoint: mean survival time, dose: 250.0 mg/kg/injection, schedule: Q01DX001 (ip), vehicle: distilled water + Tween-80); 126 % of control (T/C endpoint: mean survival time, dose: 250.0 mg/kg/injection, schedule: Q01DX001 (ip), vehicle: water, evaluated on day 30); 94 [survivor count not shown] and 115 % of control [survivor count not shown] (T/C endpoint: mean survival time, dose: 250.0 mg/kg/injection, schedule: Q01DX001 (ip), vehicle: water, evaluation day not shown). Further, where the note is “T/C endpoint: mean survival time, dose: 500.0 mg/kg/injection, schedule: Q01DX001 (ip), vehicle: water”, the survivor count is reported as 0 of 6.

Consider `CC(O)CCOP(=O)(N(C)C)N(CCCl)CCCl` (stereo unspecified), for which the T/C reads like this: (T/C endpoint: mean survival time, dose: 25.0 mg/kg/injection, schedule: Q01DX001 (ip), vehicle: DMSO) 97 % of control [survivor count not shown]; (T/C endpoint: mean survival time, dose: 50.0 mg/kg/injection, schedule: Q01DX001 (ip), vehicle: DMSO) 97 % of control [survivor count not shown]; (T/C endpoint: mean survival time, dose: 100.0 mg/kg/injection, schedule: Q01DX001 (ip), vehicle: DMSO) 106 % of control [survivor count not shown]; (T/C endpoint: mean survival time, dose: 200.0 mg/kg/injection, schedule: Q01DX001 (ip), vehicle: DMSO) 100 % of control [survivor count not shown].

With `NCCN(CCCl)CCCl`, the T/C is 148 % of control (T/C endpoint: median survival time, dose: 0.25 mg/kg/injection, schedule: Q01DX009 (ip), vehicle: saline); 143 and 172 % of control (T/C endpoint: median survival time, dose: 0.5 mg/kg/injection, schedule: Q01DX005 (ip), vehicle: saline); 197 % of control (T/C endpoint: median survival time, dose: 0.5 mg/kg/injection, schedule: Q01DX009 (ip), vehicle: saline); 141 and 158 % of control (T/C endpoint: median survival time, dose: 1.0 mg/kg/injection, schedule: Q01DX005 (ip), vehicle: saline); 197 % of control (T/C endpoint: median survival time, dose: 1.0 mg/kg/injection, schedule: Q01DX009 (ip), vehicle: saline); 168 and 197 % of control (T/C endpoint: median survival time, dose: 2.0 mg/kg/injection, schedule: Q01DX005 (ip), vehicle: saline). Besides, the T/C runs as follows: (T/C endpoint: median survival time, dose: 2.0 mg/kg/injection, schedule: Q01DX009 (ip), vehicle: saline) 234 % of control; (T/C endpoint: median survival time, dose: 4.0 mg/kg/injection, schedule: Q01DX005 (ip), vehicle: saline) 90 and 127 % of control; (T/C endpoint: median survival time, dose: 4.0 mg/kg/injection, schedule: Q01DX009 (ip), vehicle: saline) 97 % of control.

As to `CCN(CC)Cc1cccc(N(CCCl)CCCl)c1`, the T/C was 103 [survivor count not shown] and 108 % of control [survivor count not shown] (T/C endpoint: mean survival time, dose: 12.5 mg/kg/injection, schedule: Q01DX009 (ip), vehicle: Klucel (hydroxypropylcellulose) (HPC)); 95 % of control [survivor count not shown] (T/C endpoint: mean survival time, dose: 25.0 mg/kg/injection, schedule: Q01DX001 (ip), vehicle: Klucel (hydroxypropylcellulose) (HPC)); 97 [survivor count not shown], 110 [survivor count not shown], 112 % of control [survivor count not shown] (T/C endpoint: mean survival time, dose: 25.0 mg/kg/injection, schedule: Q01DX009 (ip), vehicle: Klucel (hydroxypropylcellulose) (HPC)); 95 % of control [survivor count not shown] (T/C endpoint: mean survival time, dose: 25.0 mg/kg/injection, schedule: Q04DX002 (ip), vehicle: Klucel (hydroxypropylcellulose) (HPC)); 103 % of control [survivor count not shown] (T/C endpoint: mean survival time, dose: 25.0 mg/kg/injection, schedule: Q04DX003 (ip), vehicle: Klucel (hydroxypropylcellulose) (HPC)); 103 % of control [survivor count not shown] (T/C endpoint: mean survival time, dose: 50.0 mg/kg/injection, schedule: Q01DX001 (ip), vehicle: Klucel (hydroxypropylcellulose) (HPC)). For the same compound, the T/C runs as follows: (T/C endpoint: mean survival time, dose: 50.0 mg/kg/injection, schedule: Q01DX009 (ip), vehicle: Klucel (hydroxypropylcellulose) (HPC)) 103 [survivor count not shown], 106 [survivor count not shown], 110 [survivor count not shown], 142 % of control [survivor count not shown]; (T/C endpoint: mean survival time, dose: 50.0 mg/kg/injection, schedule: Q04DX002 (ip), vehicle: Klucel (hydroxypropylcellulose) (HPC)) 94 % of control [survivor count not shown]; (T/C endpoint: mean survival time, dose: 50.0 mg/kg/injection, schedule: Q04DX003 (ip), vehicle: Klucel (hydroxypropylcellulose) (HPC)) 97 % of control [survivor count not shown]; (T/C endpoint: mean survival time, dose: 100.0 mg/kg/injection, schedule: Q01DX001 (ip), vehicle: Klucel (hydroxypropylcellulose) (HPC)) 100 % of control [survivor count not shown]; (T/C endpoint: mean survival time, dose: 100.0 mg/kg/injection, schedule: Q01DX009 (ip), vehicle: Klucel (hydroxypropylcellulose) (HPC)) 118 [survivor count not shown], 124 [survivor count not shown], 130 [survivor count not shown], 132 % of control [survivor count not shown]; (T/C endpoint: mean survival time, dose: 100.0 mg/kg/injection, schedule: Q04DX002 (ip), vehicle: Klucel (hydroxypropylcellulose) (HPC)) 103 % of control [survivor count not shown]. The T/C by setting is: (T/C endpoint: mean survival time, dose: 100.0 mg/kg/injection, schedule: Q04DX003 (ip), vehicle: Klucel (hydroxypropylcellulose) (HPC)) 109 % of control [survivor count not shown]; (T/C endpoint: mean survival time, dose: 200.0 mg/kg/injection, schedule: Q01DX001 (ip), vehicle: Klucel (hydroxypropylcellulose) (HPC)) 103 % of control [survivor count not shown]; (T/C endpoint: mean survival time, dose: 200.0 mg/kg/injection, schedule: Q04DX002 (ip), vehicle: Klucel (hydroxypropylcellulose) (HPC)) 111 % of control [survivor count not shown]; (T/C endpoint: mean survival time, dose: 200.0 mg/kg/injection, schedule: Q04DX003 (ip), vehicle: Klucel (hydroxypropylcellulose) (HPC)) 111 % of control [survivor count not shown].

For `O=c1c2ccccc2ncn1CCN(CCCl)CCCl`, the T/C by setting is: (T/C endpoint: mean survival time, dose: 12.5 mg/kg/injection, schedule: Q01DX001 (ip), vehicle: saline) 96 % of control [survivor count not shown]; (T/C endpoint: mean survival time, dose: 25.0 mg/kg/injection, schedule: Q01DX001 (ip), vehicle: saline) 101 % of control [survivor count not shown]; (T/C endpoint: mean survival time, dose: 50.0 mg/kg/injection, schedule: Q01DX001 (ip), vehicle: saline) 106 % of control [survivor count not shown]; (T/C endpoint: mean survival time, dose: 100.0 mg/kg/injection, schedule: Q01DX001 (ip), vehicle: saline) 110 % of control [survivor count not shown].

On to `O=P(Cl)(Cl)CCCl`, for which the T/C reads like this: (T/C endpoint: mean survival time, dose: 100.0 mg/kg/injection, schedule: Q04DX002 (ip), vehicle: saline) 94 % of control [survivor count not shown]; (T/C endpoint: mean survival time, dose: 200.0 mg/kg/injection, schedule: Q04DX002 (ip), vehicle: saline) 88 % of control [survivor count not shown].
